For assay [1], the target named is human von Willebrand Factor (vWF) (Invitrogen #RP-43132) (human) (UniProt P04275). Put plainly: direct ELISA, coated SpA protein, human vWF, anti-vWF detection. For orientation: ELISA stands for enzyme-linked immunosorbent assay.
Assay [2] shares this target. Nature of the assay: direct ELISA.

Drawing on patent publication US20250288657A1, this text covers binding for one substance.

These are yes or no findings as the source states them, for the method shown. Some entries that bind do so weakly or less than the wild type.

For the substance “SpA_WT-49-339 (from UniProt A0A0H3K686 37-327)”, the binding result in assay [1] and in assay [2] was “binds” in each case.
